For some assays here: The comparison behind a weaker result is the experiment's own reference, which may not be listed here. For some assays here: Where cells or extracts were used, other partners may take part.
Tests used:
[1] = target: EGFR (on A431, LN-18 or A549 cells) (UniProt P00533); assay: flow cytometry; conditions: protein on the cell surface, label: 5' biotin
[2] = target: EGFR (UniProt P00533); assay: SPR; conditions: purified recombinant protein, protein details: R&D Systems, amine-coupled to sensor chip, label: 5' biotin
[3] = 2'-F all C and U, medium binding, reduced Rmax, PBS, 5 mM MgCl2, 20 C

AAAGGACGGAUUUAAUCGCCGUAGAAAAGCAUGUCAAAGCCGGAACCGUCC [ALT102145.01]
binding result ([1]; 2'-F all C and U, 2'-OMe A1-A3, LN-18 and A549 cells, equivalent to MinE07): binds

AUUUAAUCGCCGUAGAAAAGCAUGUCAAAGCCGGAACCGUCC [ALT102011.01]
binding result [2, 3]: binds more weakly

CGGAUUUAAUCGCCGUAGAAAAGCAUGUCAAAGCCGGAACCGUCC [ALT102010.01]
binding result ([2]; 2'-F all C and U, medium binding, reduced Rmax, PBS, 5 mM MgCl2, 0.05% Tween, 20 C): binds more weakly

GGAAUUUAAUCGCCGUAGAAAAGCAUGUCAAAGCCGGAACCGUCC [ALT102039.01]
binding result [2, 3]: binds more weakly

GGACGGAUUUAAUCGCCGUAGAAAAGCAUGUCAAAGCCGGAACCGUCC [ALT102066.01]
binding result ([1]; 2'-F all C and U except 2'-OMe U9, A431 cells, 50 or 100 nM aptamer): binds

GGACGGAUUUAAUCGCCGUAGAAAAGCAUGUCAAAGCCGGAACCGUCC [ALT102071.01]
binding result ([2]; 2'-F all C and U except 2'-OMe C14): binds more weakly

GGACGGAUUUAAUCGCCGUAGAAAAGCAUGUCAAAGCCGGAACCGUCC [ALT102079.01]
binding result ([2]; 2'-F all C and U, 2'-OMe A22, medium binding, low Rmax, PBS, 5 mM MgCl2, 20 C): binds more weakly

GGACGGAUUUAAUCGCCGUAGAAAAGCAUGUCAAAGCCGGAACCGUCC [ALT102082.01]
binding result ([2]; 2'-F all C and U, 2'-OMe A25, medium binding, low Rmax, PBS, 5 mM MgCl2, 20 C): binds more weakly

GGACGGAUUUAAUCGCCGUAGAAAAGCAUGUCAAAGCCGGAACCGUCC [ALT102092.01]
binding result ([2]; 2'-F all C and U, 2'-OMe A35, medium binding, low Rmax, PBS, 5 mM MgCl2, 20 C): binds more weakly

GGACGGAUUUAAUCGCCGUAGAAAAGCAUGUCAAAGCCGGAACCGUCC [ALT102099.01]
binding result ([2]; 2'-F all C and U, 2'-OMe A42, medium binding, low Rmax, PBS, 5 mM MgCl2, 20 C): binds more weakly

GGACGGAUUUAAUCGCCGUAGAAAAGCAUGUCAAAGCCGGAACCGUCC [ALT102100.01]
binding result ([2]; 2'-F all C and U except 2'-OMe C43, medium binding, low Rmax, PBS, 5 mM MgCl2, 20 C): binds more weakly

GGACGGAUUUAAUCGCCGUAGAAAAGCAUGUCAAAGCCGGAACCGUCC [ALT102101.01]
binding result ([2]; 2'-F all C and U except 2'-OMe C44, medium binding, low Rmax, PBS, 5 mM MgCl2, 20 C): binds more weakly

GGACGGAUUUAAUCGCCGUAGAAAAGCAUGUCAAAGCCGGAACCGUCC [ALT102106.01]
binding result ([2]; 2'-F all C and U and G1, medium binding, slightly lower Rmax, PBS, 5 mM MgCl2, 20 C): binds more weakly

GGACGGAUUUAAUCGCCGUAGAAAAGCAUGUCAAAGCCGGAACCGUCC [ALT102113.01]
binding result ([2]; 2'-F all C and U and A12, medium binding, low Rmax, PBS, 5 mM MgCl2, 20 C): binds more weakly

GGACGGAUUUAAUCGCCGUAGAAAAGCAUGUCAAAGCCGGAACCGUCC [ALT102115.01]
binding result ([2]; 2'-F all C and U and G18, medium binding, low Rmax, PBS, 5 mM MgCl2, 20 C): binds more weakly

GGACGGAUUUAAUCGCCGUAGAAAAGCAUGUCAAAGCCGGAACCGUCC [ALT102124.01]
binding result ([2]; 2'-F all C and U and G30): binds more weakly

GGACGGAUUUAAUCGCCGUAGAAAAGCAUGUCAAAGCCGGAACCGUCC [ALT102135.01]
binding result ([1]; 2'-F all C and U, 2'-OMe at 1-3,5-7,15,18,20,21,23,24,26,28,30,33,36,39-41,45, LN-18 and A549 cells, equivalent to MinE07): binds

GGGAUUUAAUCGCCGUAGAAAAGCAUGUCAAAGCCGGAACCC [ALT102054.01]
binding result ([1]; 2'-F all C and U, A431 and A549 cells, 50 or 100 nM aptamer, equivalent to MinE07): binds

GGGAUUUAAUCGCCGUAGAAAAGCAUGUCAAAGCCGGAACCC [ALT102139.01]
binding result ([1]; 2'-F all C and U, 2'-OMe at own positions 1-4,12,15,17,18,20,21,23,25,27,30,33,36-38, LN-18 and A549 cells, equivalent to MinE07): binds

UAAUCGCCGUAGAAAAGCAUGUCAAAGCCGGAACCGUCC [ALT102012.01]
binding result [2, 3]: binds more weakly

Source: patent US20170130226
